Data as given in PubChem BioAssay AID652272 (Drosophila RNAi Screening Center, 2013)

- Test: 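Genome-wide knock-down search for components of Hedgehog signalling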 (primary screen)
- Cells: Drosophila clone 8 (Cl8) cells
- Reagent: long dsRNA against Drosophila genes
- Detection: 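Plate reader light from a firefly reporter under a ptc promoter fragment that responds to Hedgehog, with Renilla light as transfection reference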
- Direction: firefly Hh reporter signal: higher = more ptc reporter light; Renilla reference signal: higher = more Renilla control light
- Rule for the call: 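Hit when the z-score averaged over two replicates is under -2 or over +3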
- Calls: active = hit: reporter lowered or raised; inactive = not a hit
The deposit covers about 21,000 reagents; shown is a random part of those with a known target gene and a result. Over the whole deposit, 503 (2.4%) were called active. 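Raw plate light values, not normalised; calls rest on replicate z-scores that were not deposited; hits include reporter decreases as well as increases.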 Entries without a mark were called inactive. Names joined by + are all predicted targets of the reagent. Not stated in the record: the amount of reagent, the time to read-out.

target gene | DRSC id | firefly Hh reporter signal, replicate 1 | firefly Hh reporter signal, replicate 2 | Renilla reference signal, replicate 1 | Renilla reference signal, replicate 2
CG15651 | DRSC04242 | 64835 | 61521 | 2352 | 5079
CG4741 | DRSC04228 | 76829 | 1.02e5 | 1600 | 8096
CG4741 | DRSC04485 | 77824 | 44532 | 1446 | 3709
Svip | DRSC08982 | 1.04e5 | 1.89e5 | 2935 | 7735
drm | DRSC00277 | 1.59e5 | 63392 | 4059 | 6778
CG34163 | DRSC01219 | 4.57e5 | 2.48e5 | 26024 | 10103
Parg | DRSC18696 | 1.77e5 | 94405 | 4258 | 3290
CG32832 | DRSC01562 | 1.05e5 | 1.94e5 | 3260 | 10083
CG7945 | DRSC10934 | 81433 | 46426 | 3088 | 1831
Cdc7 | DRSC18428 | 1.54e5 | 3.74e5 | 6045 | 14097
Cdc7 | DRSC18429 | 75911 | 1.63e5 | 2836 | 7432
fs(1)M3 | DRSC18381 | 84867 | 1.07e5 | 2068 | 2408
Jon99Ci | DRSC16860 | 90736 | 1.31e5 | 3111 | 4397
Arp53D | DRSC05923 | 1.14e5 | 46576 | 2940 | 2547
hubl | DRSC06825 | 1.02e5 | 75626 | 2412 | 6353
PIG-Wb | DRSC08526 | 52407 | 38200 | 1789 | 2886
Gmppa | DRSC07108 | 1.11e5 | 32085 | 2931 | 1584
shu | DRSC04484 | 92328 | 80180 | 4156 | 3388
CG9673 | DRSC20202 | 71581 | 2.99e5 | 1705 | 12390
Tsp47F | DRSC07325 | 50368 | 38123 | 1478 | 3721
Trpm | DRSC06629 | 94456 | 58391 | 3849 | 2294
CG4970 | DRSC02796 | 1.11e5 | 57963 | 2880 | 5398
Oseg6 | DRSC06066 | 81864 | 72790 | 1916 | 4497
Dp1 | DRSC07403 | 1.38e5 | 1.07e5 | 4996 | 4304
CG9813 | DRSC16569 | 1.56e5 | 85024 | 5772 | 2135
ear | DRSC15675 | 1.06e5 | 92770 | 4624 | 4277
NP15.6 | DRSC16756 | 4.58e5 | 1.05e5 | 24185 | 2363
park + Targ3 | DRSC11617 | 1.88e5 | 1.06e5 | 7797 | 4272
Ugt37D1 | DRSC02645 | 83937 | 59370 | 2187 | 5319
CCAP | DRSC15674 | 4.66e5 | 1.24e5 | 23138 | 4107
Coq7 + shf | DRSC18448 | 84539 | 1.99e5 | 3648 | 8372
CG2767 | DRSC15451 | 96080 | 71344 | 4509 | 3179
ND-30 | DRSC08243 | 1.30e5 (active) | 75832 | 3738 | 2308
CG7432 | DRSC16243 | 6.31e5 | 1.42e5 | 30042 | 3837
CG32639 | DRSC18972 | 3.27e5 | 1.51e5 | 18944 | 3894
dl | DRSC03520 | 79605 | 51811 | 3834 | 2037
dl | DRSC03521 | 1.07e5 | 71408 | 2517 | 5421
CG16800 | DRSC02518 | 1.40e5 | 62438 | 3429 | 5819
CG6983 | DRSC10757 | 1.07e5 | 80796 | 4880 | 3301

Called active, among the entries above:
target gene | DRSC id | firefly Hh reporter signal, replicate 1 | firefly Hh reporter signal, replicate 2 | Renilla reference signal, replicate 1 | Renilla reference signal, replicate 2
ND-30 | DRSC08243 | 1.30e5 (active) | 75832 | 3738 | 2308
